Some entries share one result that the patent states for a list of compounds.
Experiments:
Format in all cases: cell-based, Hepatitis B virus (HBV)
HBV cccDNA = experiment: Repeated transfection of HepDE19 cells with gRNA/Cas9 RNPs, HBV cccDNA qPCR; conditions: for reduction of HBV cccDNA: one-time or repeated (4-times) transfection with a single gRNA, vs gRNAc; for reduction in HBV cccDNA: repeated transfection, total of four treatments, vs scrambled gRNAc
[1] = tested on: HBV replication in HepDE19 cells; experiment: Suppression of HBV replication in HepDE19 cells by synthetic gRNA/Cas9 RNPs, one-time transfection (ELISA, real-time PCR, RNAscope); conditions: one-time transfection with a single dose in HBV-infected hepatocytes, vs gRNAc (FIG. 2-4)
Protocol: The HepDE19 cell line is tetracycline-controlled HBV stable cells maintained in the presence of 500 μg/ml G418 and 1 μg/ml tetracycline (Tet). Upon withdrawing Tet from the culture fluid of HepDE19 cells, pgRNA transcription, HBV DNA replication, cccDNA formation, and HBV e antigen (HBeAg) production gradually increase in a time-dependent manner. To induce HBV replication, the cells were cultured in a Tet-free medium for 0-10 days, followed by measuring the expression of HBV antigens, HBV cccDNA, and pgRNA using methods previously described. For cell transfection, HepDE19 cells were cultured in Tet-free medium for 2 days. […]
The levels of HBsAg and HBeAg in the supernatants of cell cultures were determined by ELISA (Cat #KA0286 and NBP2-600029, Novus Biologicals, Littleton, CO) according to the manufacturer's protocol. The optical density of antigen levels was measured at 450 nm using a microplate spectrophotometer. […]
Total RNA was extracted from the cell pellets by the RNeasy Mini kit (Cat #74104, QIAGEN, Germantown, MD), and 1 μg RNA was converted to cDNA using the Applied Biosystems High-Capacity cDNA Reverse Transcription Kit (Cat #43-688-14, ThermoFisher, Waltham, MA). Quantitative real-time PCR (real-time-qPCR) was performed using iTaq Universal SYBR Green Supermix (Cat #1725124, Bio-Rad, Hercules, CA). […]

[2] = tested on: HBV replication in HepG2/2.2.15 cells; experiment: Antiviral efficiency of synthetic gRNA/Cas9 RNPs in HepG2/2.2.15 cells (HBsAg/HBeAg ELISA, HBV mRNA and HBV DNA real-time PCR); conditions: vs gRNAc; for reduction in HBV DNA level: HepG2/2.2.15 cells, real-time PCR; for reduction in HBeAg levels: HepG2/2.2.15 supernatant, 3 days after nucleofection, ELISA
Protocol: The HepG2.2.15 Human Hepatoblastoma cell line (Cat #SCC249, MilliporeSigma, Burlington, MA) is a traditional HBV cellular model that is widely used for studying HBV infection and drug development. HepG2.2.15 cells display constitutive HBV RNA transcription and DNA replication, but a lesser detection of cccDNA by Southern blot and PCR detection. The HepG2/2.2.15 cells were cultured in DMEM (Cat #MT10013CV, Fisher Scientific, Waltham, MA) supplemented with 10% Fetal bovine serum, penicillin, and streptomycin (50 ug/ml each; Fisher Scientific) and maintained at 37° C. and 5% CO2 atmosphere. The Amaxa Cell Line Nucleofector Kit V (Lonza VCA-1003) was used to deliver gRNA/Cas9 into HepG2/2.2.15 cells stably expressing HBV. For each transfection, 160 μM gRNA and 160 μM tracrRNA were first incubated at 37° C. for 30 minutes, followed by adding 80 μM Cas9 protein and incubating at 37° C. for 15 minutes. Approximately 40 μM of the gRNA/Cas9 complex was transfected into HepG2/2.2.15 cells (5×10^5) following the manufacturer's instructions. After 72 hours, the culture supernatants were harvested to measure HBV antigens by ELISA, and the cell pellets were used to determine HBV DNA or mRNA levels by real-time-PCR.
The levels of HBsAg and HBeAg in the supernatants of cell cultures were determined by ELISA (Cat #KA0286 and NBP2-600029, Novus Biologicals, Littleton, CO) according to the manufacturer's protocol. The optical density of antigen levels was measured at 450 nm using a microplate spectrophotometer. The samples were run in triplicate, and the experiments were repeated at least three times.
Total RNA was extracted from the cell pellets by the RNeasy Mini kit (Cat #74104, QIAGEN, Germantown, MD), and 1 μg RNA was converted to cDNA using the Applied Biosystems High-Capacity cDNA Reverse Transcription Kit (Cat #43-688-14, ThermoFisher, Waltham, MA). Quantitative real-time PCR (real-time-qPCR) was performed using iTaq Universal SYBR Green Supermix (Cat #1725124, Bio-Rad, Hercules, CA). The PCR primers were: HBV mRNA forward, 5′-[…]-3′ (SEQ ID NO: 52), reverse, 5′-[…]-3′ (SEQ ID NO: 53); HBV pgRNA forward 5′-[…]-3′ (SEQ ID NO: 54), reverse 5′-[…]-3′ (SEQ ID NO: 55); and GAPDH forward 5′-[…]-3′ (SEQ ID NO: 56), reverse 5′-[…]-3′ (SEQ ID NO: 57). The gene expression levels were determined by the […] method and values were normalized to GAPDH expression as an internal control.
Total and protein-free HBV DNAs were extracted from whole cell lysate using the Hirt DNA method according to a previously published protocol. For HBV cccDNA analysis, the protein-free DNA was treated with 10 units of T5 exonuclease (NEB) at 37° C. for 30 min, followed by 95° C. for 5 min, and diluted 4-fold with nuclease-free water. Next, the cccDNA was cleaned with a DNA clean and concentrator kit (ZYMO Research, Irvine, CA) and used for PCR. HBV total DNA and cccDNA were analyzed by real-time PCR using a TaqMan PCR assay. The primers and probe used to amplify HBV total DNA were: HBV total DNA forward: 5′-[…]-3′ (SEQ ID NO: 58), reverse 5′-[…]-3′ (SEQ ID NO: 59), and internal probe: 5′-FAM-[…]-TAMRA-3′ (SEQ ID NO: 60). The primers and probe used to amplify HBV cccDNA (Genotype D, subtype ayw) were: forward: 5′-[…]-3′ (SEQ ID NO: 61), reverse 5′-[…]-3′ (SEQ ID NO: 62), and internal probe 5′-FAM-[…]-TAMRA-3′ (SEQ ID NO: 63). The PCR reactions were performed in 20 μl volumes and contained 2 μl DNA. The PCR conditions were: 95° C. for 10 min, followed by 45 cycles of 95° C. for 15 s and 64° C. for 30 s. The DNA levels were determined by the […] method and values were normalized to the control group.
Because the hepatoma cell line HepG2/2.2.15 is a traditional HBV cellular model used to test the efficacy and cytotoxicity of anti-HBV drugs, the synthetic gRNA/Cas9 RNPs were tested for their antiviral efficiency in HepG2/2.2.15 cells. […]

Sequence	reduction of HBV cccDNA (HBV cccDNA)	reduction in HBV cccDNA (HBV cccDNA)	reduction in HBV transcripts (DNA/RNA/antigens) [1]	reduction in HBV DNA level [2]	reduction in HBeAg levels [2]
GTTATCGCTGGATGTGTCTGNGG (guide GUUAUCGCUGGAUGUGUCUGNGG; complexed with Cas9 protein, chemistry not fully specified) [gRNA5, tested as synthetic gRNA/Cas9 RNP]	70-80%	70-80%			
GGTCTCCATGCGACGTGCAGNGG [gRNA9]	70-80%	70-80%	> 60%	> 50%	> 50%
GAAGCGAAGTGCACACGGTCNGG (guide GAAGCGAAGUGCACACGGUCNGG; complexed with Cas9 as ribonucleoprotein, chemistry not given here) [gRNA8, tested as synthetic gRNA/Cas9 RNP]				> 50%	> 50%
GTCGGAACGGCAGACGGAGANGG (guide GTCGGAACGGCAGACGGAGANGG(; complexed with Cas9 as ribonucleoprotein, as printed in the source, key not given here) [gRNA7, tested as synthetic gRNA/Cas9 RNP]				> 50%	> 50%

From patent US20260191793A1, “HBV SPECIFIC EXOSOMES AND USES THEREOF” (priority 2022, published 2026)
